Source: article PMC3621763, “Adenoviral Gene Transfer of PLD1-D4 Enhances Insulin Sensitivity in Mice by Disrupting Phospholipase D1 Interaction with PED/PEA-15” (PLoS ONE, 2013)
These are yes or no findings as the source states them, for the method shown. In cells and extracts the contact can be indirect. Some entries that bind do so weakly or less than the wild type.

Sequences of proteins named here, by UniProt entry; tags and fusion partners are left off.
UniProt Q15121: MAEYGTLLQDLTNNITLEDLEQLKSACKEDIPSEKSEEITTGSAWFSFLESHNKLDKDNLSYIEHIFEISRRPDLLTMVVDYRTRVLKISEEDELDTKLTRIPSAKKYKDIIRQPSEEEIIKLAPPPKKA
UniProt Q62048: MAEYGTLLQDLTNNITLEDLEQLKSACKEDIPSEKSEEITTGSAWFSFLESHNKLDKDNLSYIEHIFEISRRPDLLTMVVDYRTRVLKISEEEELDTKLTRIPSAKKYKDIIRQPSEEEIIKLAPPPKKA

What was measured:
[1] = target: PED/PEA-15 over-expressed in transgenic Tg_(Ped/pea-15) mice (UniProt Q15121); assay: co-IP; tibialis skeletal muscle homogenate of Tg_(Ped/pea-15) mice one week after infection with Ad-D4 or Ad-GFP; IP with anti-PED/PEA-15 antibody, blot with anti-PLD1
[2] = target: PED/PEA-15 over-expressed in transgenic Tg_(Ped/pea-15) mice (UniProt Q15121); assay: co-IP; tibialis skeletal muscle lysate (0.5-1 mg) of Wt and Tg_(Ped/pea-15) mice, precleared with pre-immune serum, anti-PED/PEA-15 antibody overnight at 4°C, protein A sepharose, blot with anti-PLD1
[3] = target: phosphoprotein enriched in diabetes/phosphoprotein enriched in astrocytes (PED/PEA-15), endogenous in wild type mice (mouse (endogenous in tibialis skeletal muscle)) (UniProt Q62048); assay: as above

Measured: binding

B1: Phospholipase D1 (PLD1), endogenous in mouse skeletal muscle (enzyme, UniProt Q9Z280 1-1074, looked up)
chain: MSLKSETRVNTSTLQKIAADMSNLIENLDTRELHFEGEEVEYDASPGDPKAQEGCIPFSSIYNTQGFKEPNIQTYLSGCPIKAQVLEVERFTSTSRVPSINLYTIELTHGEFTWQVKRKFKHFQEFHRELLKYKAFIRIPIPTKRHTFRRQNVKEEPREMPSLPRSSENAIQEEQFFGRRKQLEDYLTKILKMPMYRNYHATTEFLDVSQLSFIHDLGPKGLEGMIMKRSGGHRIPGVNCCGHGRACYRWSKRWLIVKDSFLLYMKPDSGAIAFVLLVDKEFRVKVGRKETETKYGLRIDNLSRTLILKCNSYRHARWWGGAIEEFIRKHGADFLKDHRFGSYAALHENTLAKWYVNAKGYFEDIANAMEEASEEIFITDWWLSPEIFLKRPVVEGNRWRLDCILKRKAQQGVRIFIMLYKEVELALGINSEYSKRTLMRLHPNIKVMRHPDHVSSSVYLWAHHEKLVIIDQSVAFVGGIDLAYGRWDDNEHRLTDVGSVKRVTSGLSLGSLTAASVESMESLSLKDKHEFHKKEPISKIVDETDMKLKGIGKSRKFSKFSLYRQLHRHHLHNADSISSIDSTSSYFSHCRSHQNLIHGLKPHLKLFHPSSESEQGLTRHSTDTGSIRSVQTGVGELHGETRFWHGKDYCNFVFKDWVQLDKPFADFIDRYSTPRMPWHDIGSVVHGKAARDVARHFIQRWNFTKIMKPKYRSLSYPFLLPKSQATAHELRYQVPGAVPAKVQLLRSAADWSAGIKHHEESIHAAYIHVIENSKHYIYIENQFFISCADDKVVFNKVGDRIAQRILKAHREGQRYRVYIVIPLLPGFEGDISTGGGNALQAIMHFNYRTMCRGESSILEQLKPELGNKWINYISFCGLRTHAELEGNLVTELIYVHSKLLIADDNTVIIGSANINDRSMLGKRDSEMAVIVQDTETVPSVMDGKEYQAGRFARDLRLECFRLVLGYLSDPSEDLQDPVSDKFFKEIWVSTAARNATIYDKVFRCLPNDEVHNLIQLRDFINKPILAKEDALRAEEELRKIRGFLVQFPLYFLSEENLLPSVGTKEAIVPMEVWT
notes: Phospholipase D1, endogenous protein of mouse skeletal muscle; Detected by blot with an anti-PLD1 antibody in the anti-PED/PEA-15 precipitate; source: endogenous, tibialis skeletal muscle lysate of Wt and Tg_(Ped/pea-15) mice
binds: all assays above
